# Values from PubChem BioAssay AID1671195 (Yale University, 2021)
# Assay: 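Genes whose knockdown alters LDL uptake in liver cancer cells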 (primary screen)
# Cell system: human Huh7 hepatoma cells
# Reagent: siRNA pool against human genes, 18 nM
# Duration: about 2 to 2.5 days of knockdown, then 8 h LDL uptake
# Treatment: DiI-labelled LDL at 30 µg/ml for 8 h, in lipoprotein-deficient serum medium
# Read-out: 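Fluorescent LDL signal imaged in cells, scaled to the plate median, robust z-score for each replicate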
# Reading the numbers: robust z-score: higher = more LDL uptake after knockdown
# Rule for the call: 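Active when two or more replicates show a robust z-score above 2 or below -2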
# Shown is an unselected part of about 22,000 deposited reagents. About 1,510 of them (6.9%) count as active. 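Active includes knockdowns raising or lowering LDL uptake; positive z-scores mean more uptake, negative mean less.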 Entries without a mark were called inactive. Reagent sequences are not shown.
gene,"robust z-score, replicate 1","robust z-score, replicate 2","robust z-score, replicate 3"
EPHB2 (EPH receptor B2),2.11,1.15,-0.0758
TNFRSF13C (TNF receptor superfamily member 13C),-0.864,0.846,0.336
"RBBP6 (RB binding protein 6, ubiquitin ligase)",1.09 (active),1.32,1.11
CASP3 (caspase 3),-1.5,-1.59,-1.02
SNAPC5 (small nuclear RNA activating complex polypeptide 5),-1.11,-0.173,-0.77
CALHM3 (calcium homeostasis modulator 3),0.0743,-0.0302,0.0585
EIF3D (eukaryotic translation initiation factor 3 subunit D),0.608,3.12,0.666
HACD4 (3-hydroxyacyl-CoA dehydratase 4),-0.857,-0.751,-0.386
LOC390906 (retired record),-0.496,-0.314,-0.48
IQSEC3P3 (IQ motif and Sec7 domain 3 pseudogene 3),-0.355,-0.356,-0.212
PDZK1IP1 (PDZK1 interacting protein 1),-0.131,-0.742,-0.374
ZNF668 (zinc finger protein 668),-0.00259,0.526,-0.0251
BCO2 (beta-carotene oxygenase 2),-1.33,-1.42,-1.24
"ST3GAL2 (ST3 beta-galactoside alpha-2,3-sialyltransferase 2)",-1.22,-1.36,-1.01
OPRM1 (opioid receptor mu 1),0.771,0.408,1.48
GPR4 (G protein-coupled receptor 4),0.978,1.15,0.63
GPR160 (G protein-coupled receptor 160),-0.229,0.647,0.267
SLC18A2,-1.21,-1.29,-1.45
SNX30 (sorting nexin family member 30),-1.57,-1.95,-1.74
CYP2C19 (cytochrome P450 family 2 subfamily C member 19),0.824,0.922,0.867
DDX17 (DEAD-box helicase 17),0.177,1.78,1.6
BBLN (bublin coiled coil protein),-0.522,-0.00992,-0.34
SLC6A10P,-0.61,-0.885,-0.685
DYNLL1 (dynein light chain LC8-type 1),0.335,0.833,-0.541
NIBAN3 (niban apoptosis regulator 3),0.625,0.105,0.353
EXOC8 (exocyst complex component 8),-2.07,-0.945,-1.57
VWF (von Willebrand factor),-0.607,-0.215,-0.184
P2RY10 (P2Y receptor family member 10),-2.57,0.231,-0.0956
EHMT2 (euchromatic histone lysine methyltransferase 2),0.408,-0.13,0.0769

Records listed so far marked active (1):
gene,"robust z-score, replicate 1","robust z-score, replicate 2","robust z-score, replicate 3"
"RBBP6 (RB binding protein 6, ubiquitin ligase)",1.09 (active),1.32,1.11

Continued:
gene,"robust z-score, replicate 1","robust z-score, replicate 2","robust z-score, replicate 3"
LINC01239 (long independently transcribed non-coding RNA 1239),0.44,0.329,0.529
TMEM139 (transmembrane protein 139),0.375,0.173,1.06
MAP6D1 (MAP6 domain containing 1),0.401,-0.622,-0.497
ARFGAP1 (ARF GTPase activating protein 1),0.00937,-0.426,-0.307
EIF2S1 (eukaryotic translation initiation factor 2 subunit alpha),2.66 (active),3.26,2.59
PTGER4 (prostaglandin E receptor 4),-0.363,0.546,-0.31
RPL32P20 (ribosomal protein L32 pseudogene 20),-1.44,-0.26,-0.0752
LOC442400 (retired record),-0.506,-0.429,0.0259
UBC (ubiquitin C),-1.7 (active),-2.15,-2.34
"NALCN (sodium leak channel, non-selective)",-1.76,-1.09,-1.64
"GOLGA8VP (golgin A8 family member V, pseudogene)",0.614,0.0647,0.183
"CTNS (cystinosin, lysosomal cystine transporter)",-1.83 (active),-1.93,-2.31
ARHGAP1 (Rho GTPase activating protein 1),-0.469,-0.455,-0.405
TMPRSS9 (transmembrane serine protease 9),-0.851,0.289,-1.22
NUDT17 (nudix hydrolase 17),0.111,0.00249,0.187
MPPED2 (metallophosphoesterase domain containing 2),0.212,-0.22,-0.519
SP6 (Sp6 transcription factor),1.25,1.08,1.78
PAEP (progestagen associated endometrial protein),-1.62,-1.41,-1.63
SIX2 (SIX homeobox 2),0.142,-1.33,0.756
MPDZ (multiple PDZ domain crumbs cell polarity complex component),-0.439,-0.939,-0.905
CEL (carboxyl ester lipase),-0.499,-0.141,0.267
PRRC2C (proline rich coiled-coil 2C),-0.425,1.16,-0.144
KCNE3,-2.16 (active),-2.28,-1.83
LPAR4 (lysophosphatidic acid receptor 4),0.0636,-0.384,-0.263
SKI (SKI proto-oncogene),-0.714,-0.633,-0.909
AAMDC (adipogenesis associated Mth938 domain containing),2.03,0.447,1.67
ZBTB39 (zinc finger and BTB domain containing 39),0.75,0.741,0.715
LOC388353 (retired record),1.25,1.54,1.88
APOLD1 (apolipoprotein L domain containing 1),0.65,0.882,1.19
UGCG (UDP-glucose ceramide glucosyltransferase),-2.02 (active),-1.86,-1.51
NCAPH (non-SMC condensin I complex subunit H),1.57,-0.929,1.82
"RAB10 (RAB10, member RAS oncogene family)",0.0734,0.0852,0.0288
INTS1 (integrator complex subunit 1),-1.69,-2.77,-1.75
MDN1 (midasin AAA ATPase 1),1.11,1.31,1.52
TMEM141 (transmembrane protein 141),-0.247,-0.519,-0.176
PARP2 (poly(ADP-ribose) polymerase 2),0.299,0.125,1.04
MGRN1 (mahogunin ring finger 1),3.41,0.21,1.52
"TLE2 (TLE family member 2, transcriptional corepressor)",0.955,0.114,0.796
METTL25B (methyltransferase like 25B),0.0474,-0.91,0.676
